Results on one molecule are retold here after patent publication US20160052997A1.

Results are given in words; binding and its absence hold for the method and conditions named. Binding calls can cover weak binding; strength is not graded here.

For this assay, the target named is purified recombinant HA protein of H1N1 (A/Solomon Island/03/06) (Influenza A virus A/Solomon Island/03/06 (H1N1)). Description: SPR, Biacore T200. For orientation: SPR reads the build-up and loss of mass on a sensor chip optically.

B1: CT120 (antibody, V domains shown)
VH: QVQLVQSGAEVKMPGSSVKVSCKTSGVFFSSHAISWVRQAPGQGLEWMGGISPMFGTTHYAQKFQGRVTITADQSTTTAYMELTSLTSEDTAVYYCARDGAGSYYPLNWFDPWGQGTLVTVSS
VL: EIVLTQSPATLSLSPGERATLSCRASENIWNNLAWYQQKPGQAPRLLISGASTGATGVPSRFRGSGSRTEFTLTISSLQSEDFAIYFCQQYNSWPRTFGPGTKVEIKR
With B1, the binding result was “binds”.
